Assay results taken from article PMC10218208.
Results are given in words; binding and its absence hold for the method and conditions named. Binding seen in cells or lysates may run through a third protein. Some results given as binding are weak or reduced against the parent protein; the word gives no strength.

Amino acid sequences for entries named in this document (tags omitted).
UniProt Q99497: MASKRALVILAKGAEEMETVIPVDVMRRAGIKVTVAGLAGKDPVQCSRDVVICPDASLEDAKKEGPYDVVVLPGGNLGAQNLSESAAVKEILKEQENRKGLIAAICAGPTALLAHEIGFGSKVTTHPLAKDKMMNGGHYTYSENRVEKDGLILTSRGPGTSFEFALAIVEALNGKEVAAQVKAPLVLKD
UniProt P09874: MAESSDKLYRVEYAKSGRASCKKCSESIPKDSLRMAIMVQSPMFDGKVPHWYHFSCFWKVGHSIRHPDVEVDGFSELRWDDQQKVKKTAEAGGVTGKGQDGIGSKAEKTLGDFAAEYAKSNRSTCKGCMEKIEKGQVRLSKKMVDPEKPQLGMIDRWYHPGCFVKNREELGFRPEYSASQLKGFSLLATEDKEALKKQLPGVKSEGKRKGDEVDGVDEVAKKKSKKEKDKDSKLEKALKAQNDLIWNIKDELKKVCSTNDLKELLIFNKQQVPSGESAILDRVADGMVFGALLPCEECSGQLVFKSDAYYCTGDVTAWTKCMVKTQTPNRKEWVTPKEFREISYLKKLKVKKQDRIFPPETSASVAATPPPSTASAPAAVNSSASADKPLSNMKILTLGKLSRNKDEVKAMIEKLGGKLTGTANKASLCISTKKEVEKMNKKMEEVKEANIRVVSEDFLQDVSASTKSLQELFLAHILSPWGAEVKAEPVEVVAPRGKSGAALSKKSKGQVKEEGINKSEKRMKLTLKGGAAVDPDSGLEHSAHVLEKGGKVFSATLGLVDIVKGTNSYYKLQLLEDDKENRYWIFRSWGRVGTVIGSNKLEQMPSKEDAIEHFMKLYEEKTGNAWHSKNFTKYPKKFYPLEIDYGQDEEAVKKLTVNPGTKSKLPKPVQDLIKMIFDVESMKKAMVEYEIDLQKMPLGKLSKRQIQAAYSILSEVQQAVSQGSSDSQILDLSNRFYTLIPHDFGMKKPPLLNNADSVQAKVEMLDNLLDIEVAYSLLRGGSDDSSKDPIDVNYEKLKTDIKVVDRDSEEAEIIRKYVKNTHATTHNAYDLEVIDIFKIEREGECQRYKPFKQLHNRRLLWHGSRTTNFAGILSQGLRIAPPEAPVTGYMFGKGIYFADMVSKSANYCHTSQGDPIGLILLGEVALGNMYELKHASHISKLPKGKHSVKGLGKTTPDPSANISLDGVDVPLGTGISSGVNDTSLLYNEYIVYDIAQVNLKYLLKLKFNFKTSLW

Legend:
GST-DJ-1 = GST-DJ-1 (UniProt Q99497); assay: pull-down; purified GST-DJ-1 incubated with Flag-PARP1 expressed from HEK293T cells; Pierce GST Protein Interaction Pull-Down Kit; blot with anti-Flag; only the target purified
[1] = target: DJ-1 (endogenous) (human (endogenous in HEK293T, U2OS and primary skin fibroblasts)) (UniProt Q99497); assay: co-IP; endogenous proteins in 293T cells; lysate in IP lysis buffer incubated overnight at 4 °C with antibody-coated Dynabeads Protein G
[2] = target: DJ-1 ectopically expressed in HEK293T cells (UniProt Q99497); assay: co-IP; HEK293T cells ectopically expressing DJ-1; lysate in IP lysis buffer incubated overnight at 4 °C with antibody-coated Dynabeads Protein G; untreated or treated with ETO (10 µM) for the indicated times; Benzonase tested
[3] = target: DJ-1 (endogenous) (human (endogenous in HEK293T, U2OS and primary skin fibroblasts)) (UniProt Q99497); assay: proximity ligation; in situ PLA (Duolink) on fixed U2OS cells, endogenous proteins, with and without ETO (10 µM, 30 min for DJ-1/γH2AX)
[4] = target: DJ-1 (endogenous) (human (endogenous in HEK293T, U2OS and primary skin fibroblasts)) (UniProt Q99497); assay: proximity ligation; in situ PLA (Duolink) on fixed primary human skin fibroblasts, endogenous proteins, with and without ETO (10 µM, 1 h)

binding (GST-DJ-1)	binding [1]	binding [2]	binding [3]	binding [4]	Substance
binds					Flag-PARP1 (from UniProt P09874 1-1014) (enzyme)
	binds	binds	binds	binds	PARP1 (endogenous) (from UniProt P09874 1-1014) (enzyme)
